Laboratory results from patent publication US20100111970A1 (published 2010).
Substitutions are numbered along the chain they refer to. No constants are given. Whether binding was seen depends on the method and setting. Some results given as binding are weak or reduced against the parent protein; the word gives no strength. Values belong to the binder of their own block, whether it stands above or below them.

The chains behind the UniProt entries cited, without tags or fusion partners. Residues count along the entry.
UniProt P01138, residues 122-241: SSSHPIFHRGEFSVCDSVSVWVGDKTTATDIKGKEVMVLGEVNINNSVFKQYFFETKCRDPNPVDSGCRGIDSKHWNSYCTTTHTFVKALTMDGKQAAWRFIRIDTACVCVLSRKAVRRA

Target: T1, human nerve growth factor (NGF) (human, UniProt P01138 122-241)
T1 construct: Immobilized on CM5 chip in BIAcore assays; also called human NGF; hNGF
Test: BIAcore SPR affinity screening of L1/L2 library on human NGF

B1: light chain library clone L129 (Fab, V domains shown)
VH: QVQLQESGPGLVKPSETLSLTCTVSGFSLIGYDINWIRQPPGKGLEWIGMIWGDGTTDYNSALKSRVTISKDTSKNQFSLKLSSVTAADTAVYYCARGGYYYGTSYYFDYWGQGTLVTVS
VL: DIQMTQSPSSLSASVGDRVTITCRASQSISNNLNWYQQKPGKAPKLLIYYTSRFHSGVPSRFSGSGSGTDFTFTISSLQPEDIATYYCQQSKTLPYTFGQGTKLEIKR
binding: binds

B4: light chain library clone L97 (Fab, V domains shown)
VH: B1 VH
VL: B1 VL with N32Q, T51V
binding: binds

B5: light chain library clone L81 (Fab, V domains shown)
VH: B1 VH
VL: B1 VL with S26F, S28A, N32Q, S56T
notes: Substitutions derived by comparing printed CDRs with the 8L2-6D5 control
binding: binds

The next lines start with the values.

binding: binds
B2: light chain library clone L208 (Fab, V domains shown)
VH: B1 VH
VL: B1 VL with S28Y, N32H

binding: binds
B3: light chain library clone L6 (Fab, V domains shown)
VH: B1 VH
VL: B1 VL with S26F, N32Q, T51A
